Measurements reported in PubChem BioAssay AID1224830 (NIAID, 2016).
Aim: 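Genes whose knock-down alters the TNF-alpha reporter response to LPS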 (primary screen). Cell system: human THP-1 monocytic leukaemia cells, TNF dual-luciferase reporter clone, PMA-differentiated to macrophage-like cells. Knock-down reagent: siRNA pool against human genes, 50 nM. Time to read-out: LPS for 4 h, given about 3 days after siRNA transfection. Conditions: bacterial LPS (TLR4 ligand), 10 ng/ml. Measured: 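TNF firefly reporter luminescence divided by renilla, normalised to the plate median, then turned into a robust z-score for each replicate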. Reading the numbers: TNF reporter robust z-score: higher = stronger TNF reporter response to LPS. Call rule: 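a well is active when its z-score exceeds 2.8 or falls below -1.5; control wells carry no call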.
In all, the deposit lists about 18,000 reagents; this is a random part of them. About 2,900 of all reagents (16%) were called active. 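Calls are made per well; low scores hint the gene aids the LPS response, high scores that it dampens it.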 Repeated entries: four replicate wells of each siRNA pool. Reagent sequences are not shown.

The first 14 entries, ahead of the listing:
no.	Gene	PubChem SID	TNF reporter robust z-score	Call
1	CT55 (cancer/testis antigen 55)	SID315457307	-0.35	inactive
2	CT55 (cancer/testis antigen 55)	SID315457307	0.38	inactive
3	CT55 (cancer/testis antigen 55)	SID315457307	-0.24	inactive
4	CT55 (cancer/testis antigen 55)	SID315457307	0.24	inactive
5	MYBPC1 (myosin binding protein C1)	SID315450092	1.15	inactive
6	MYBPC1 (myosin binding protein C1)	SID315450092	1.5	inactive
7	MYBPC1 (myosin binding protein C1)	SID315450092	-0.49	inactive
8	MYBPC1 (myosin binding protein C1)	SID315450092	1.55	inactive
9	HAPLN1 (hyaluronan and proteoglycan link protein 1)	SID315448097	-0.26	inactive
10	HAPLN1 (hyaluronan and proteoglycan link protein 1)	SID315448097	0.48	inactive
11	HAPLN1 (hyaluronan and proteoglycan link protein 1)	SID315448097	0.45	inactive
12	HAPLN1 (hyaluronan and proteoglycan link protein 1)	SID315448097	1.54	inactive
13	HDDC2 (HD domain containing 2)	SID315456408	-1.14	inactive
14	HDDC2 (HD domain containing 2)	SID315456408	0.37	inactive

Results, from the first entry:
no.	Gene	PubChem SID	TNF reporter robust z-score	Call
1	CT55 (cancer/testis antigen 55)	SID315457307	-0.35	inactive
2	CT55 (cancer/testis antigen 55)	SID315457307	0.38	inactive
3	CT55 (cancer/testis antigen 55)	SID315457307	-0.24	inactive
4	CT55 (cancer/testis antigen 55)	SID315457307	0.24	inactive
5	MYBPC1 (myosin binding protein C1)	SID315450092	1.15	inactive
6	MYBPC1 (myosin binding protein C1)	SID315450092	1.5	inactive
7	MYBPC1 (myosin binding protein C1)	SID315450092	-0.49	inactive
8	MYBPC1 (myosin binding protein C1)	SID315450092	1.55	inactive
9	HAPLN1 (hyaluronan and proteoglycan link protein 1)	SID315448097	-0.26	inactive
10	HAPLN1 (hyaluronan and proteoglycan link protein 1)	SID315448097	0.48	inactive
11	HAPLN1 (hyaluronan and proteoglycan link protein 1)	SID315448097	0.45	inactive
12	HAPLN1 (hyaluronan and proteoglycan link protein 1)	SID315448097	1.54	inactive
13	HDDC2 (HD domain containing 2)	SID315456408	-1.14	inactive
14	HDDC2 (HD domain containing 2)	SID315456408	0.37	inactive
15	HDDC2 (HD domain containing 2)	SID315456408	0.21	inactive
16	HDDC2 (HD domain containing 2)	SID315456408	-0.25	inactive
17	ZBTB41 (zinc finger and BTB domain containing 41)	SID315464304	1.71	inactive
18	ZBTB41 (zinc finger and BTB domain containing 41)	SID315464304	2.21	inactive
19	ZBTB41 (zinc finger and BTB domain containing 41)	SID315464304	0.7	inactive
20	ZBTB41 (zinc finger and BTB domain containing 41)	SID315464304	1.13	inactive
21	LHFPL2 (LHFPL tetraspan subfamily member 2)	SID315453886	0.17	inactive
22	LHFPL2 (LHFPL tetraspan subfamily member 2)	SID315453886	-0.32	inactive
23	LHFPL2 (LHFPL tetraspan subfamily member 2)	SID315453886	-0.22	inactive
24	TTYH2 (tweety family member 2)	SID315461102	-0.91	inactive
25	TTYH2 (tweety family member 2)	SID315461102	0.37	inactive
26	TTYH2 (tweety family member 2)	SID315461102	-0.47	inactive
27	TTYH2 (tweety family member 2)	SID315461102	-0.01	inactive
28	PIKFYVE (phosphoinositide kinase, FYVE-type zinc finger containing)	SID315463041	-0.26	inactive
29	PIKFYVE (phosphoinositide kinase, FYVE-type zinc finger containing)	SID315463041	0.26	inactive
30	PIKFYVE (phosphoinositide kinase, FYVE-type zinc finger containing)	SID315463041	0.4	inactive
31	PIKFYVE (phosphoinositide kinase, FYVE-type zinc finger containing)	SID315463041	-0.15	inactive
32	OR1K1 (olfactory receptor family 1 subfamily K member 1)	SID315464700	1.47	inactive
33	OR1K1 (olfactory receptor family 1 subfamily K member 1)	SID315464700	1.22	inactive
34	OR1K1 (olfactory receptor family 1 subfamily K member 1)	SID315464700	0.63	inactive
35	OR1K1 (olfactory receptor family 1 subfamily K member 1)	SID315464700	0.41	inactive
36	ZNF546 (zinc finger protein 546)	SID315464026	1.16	inactive
37	ZNF546 (zinc finger protein 546)	SID315464026	0.05	inactive
38	ZNF546 (zinc finger protein 546)	SID315464026	1.22	inactive
39	ZNF546 (zinc finger protein 546)	SID315464026	-1.07	inactive
40	RPL10A (ribosomal protein L10a)	SID315450201	-0.92	inactive
41	RPL10A (ribosomal protein L10a)	SID315450201	0.42	inactive
42	RPL10A (ribosomal protein L10a)	SID315450201	-0.49	inactive
43	RPL10A (ribosomal protein L10a)	SID315450201	-0.08	inactive
44	RPL7 (ribosomal protein L7)	SID315451174	0.27	inactive
45	RPL7 (ribosomal protein L7)	SID315451174	1.24	inactive
46	RPL7 (ribosomal protein L7)	SID315451174	0.39	inactive
47	RPL7 (ribosomal protein L7)	SID315451174	0.09	inactive
48	MACC1 (MET transcriptional regulator MACC1)	SID315464200	-0.47	inactive
49	MACC1 (MET transcriptional regulator MACC1)	SID315464200	-1.11	inactive
50	MACC1 (MET transcriptional regulator MACC1)	SID315464200	-0.13	inactive
51	MACC1 (MET transcriptional regulator MACC1)	SID315464200	-0.55	inactive
52	HNMT (histamine N-methyltransferase)	SID315449248	-0.61	inactive
53	HNMT (histamine N-methyltransferase)	SID315449248	0.99	inactive
54	HNMT (histamine N-methyltransferase)	SID315449248	0.23	inactive
55	HNMT (histamine N-methyltransferase)	SID315449248	0.72	inactive
56	SAMM50 (SAMM50 sorting and assembly machinery component)	SID315455479	-0.72	inactive
57	SAMM50 (SAMM50 sorting and assembly machinery component)	SID315455479	-0.49	inactive
58	SAMM50 (SAMM50 sorting and assembly machinery component)	SID315455479	-0.5	inactive
59	SAMM50 (SAMM50 sorting and assembly machinery component)	SID315455479	-0.25	inactive
60	CYSRT1 (cysteine rich tail 1)	SID315464385	0.07	inactive
61	CYSRT1 (cysteine rich tail 1)	SID315464385	-0.18	inactive
62	CYSRT1 (cysteine rich tail 1)	SID315464385	-0.15	inactive
63	CYSRT1 (cysteine rich tail 1)	SID315464385	-0.78	inactive
64	CYP2A13 (cytochrome P450 family 2 subfamily A member 13)	SID315448205	-1.11	inactive
65	CYP2A13 (cytochrome P450 family 2 subfamily A member 13)	SID315448205	-0.61	inactive
66	CYP2A13 (cytochrome P450 family 2 subfamily A member 13)	SID315448205	-0.64	inactive
67	CYP2A13 (cytochrome P450 family 2 subfamily A member 13)	SID315448205	-0.81	inactive
68	UBQLN1 (ubiquilin 1)	SID315456259	1.5	inactive
69	UBQLN1 (ubiquilin 1)	SID315456259	0.48	inactive
70	UBQLN1 (ubiquilin 1)	SID315456259	0.18	inactive
71	UBQLN1 (ubiquilin 1)	SID315456259	3.43	active
72	AFDN (afadin, adherens junction formation factor)	SID315449992	-0.34	inactive
73	AFDN (afadin, adherens junction formation factor)	SID315449992	-0.74	inactive
74	AFDN (afadin, adherens junction formation factor)	SID315449992	-0.67	inactive
75	AFDN (afadin, adherens junction formation factor)	SID315449992	0.24	inactive
76	UBE2M (ubiquitin conjugating enzyme E2 M)	SID315452993	0.19	inactive
77	UBE2M (ubiquitin conjugating enzyme E2 M)	SID315452993	-0.81	inactive
78	UBE2M (ubiquitin conjugating enzyme E2 M)	SID315452993	0.81	inactive
79	UBE2M (ubiquitin conjugating enzyme E2 M)	SID315452993	-0.06	inactive
80	IL18BP (interleukin 18 binding protein)	SID315453793	-1.21	inactive
81	IL18BP (interleukin 18 binding protein)	SID315453793	-0.68	inactive
82	IL18BP (interleukin 18 binding protein)	SID315453793	-0.9	inactive
83	SUCLG1 (succinate-CoA ligase GDP/ADP-forming subunit alpha)	SID315452832	-1.39	inactive
84	SUCLG1 (succinate-CoA ligase GDP/ADP-forming subunit alpha)	SID315452832	0.48	inactive
85	SUCLG1 (succinate-CoA ligase GDP/ADP-forming subunit alpha)	SID315452832	1.11	inactive
86	SUCLG1 (succinate-CoA ligase GDP/ADP-forming subunit alpha)	SID315452832	0.82	inactive
87	CT47A11 (cancer/testis antigen family 47 member A11)	SID315463489	2.12	inactive
88	CT47A11 (cancer/testis antigen family 47 member A11)	SID315463489	0.62	inactive
89	CT47A11 (cancer/testis antigen family 47 member A11)	SID315463489	1.42	inactive
90	CT47A11 (cancer/testis antigen family 47 member A11)	SID315463489	1.5	inactive
91	POU6F2 (POU class 6 homeobox 2)	SID315454741	-1.65	active
92	POU6F2 (POU class 6 homeobox 2)	SID315454741	-0.97	inactive
93	POU6F2 (POU class 6 homeobox 2)	SID315454741	-0.94	inactive
94	POU6F2 (POU class 6 homeobox 2)	SID315454741	-0.53	inactive
95	MYCBPAP (MYCBP associated protein)	SID315460177	-0.19	inactive
96	MYCBPAP (MYCBP associated protein)	SID315460177	-0.26	inactive
97	MYCBPAP (MYCBP associated protein)	SID315460177	-0.52	inactive
98	MYCBPAP (MYCBP associated protein)	SID315460177	0.12	inactive
99	RBFOX3 (RNA binding fox-1 homolog 3)	SID315462290	0.27	inactive
100	RBFOX3 (RNA binding fox-1 homolog 3)	SID315462290	2.42	inactive
101	RBFOX3 (RNA binding fox-1 homolog 3)	SID315462290	-0.19	inactive
102	RBFOX3 (RNA binding fox-1 homolog 3)	SID315462290	-0.79	inactive
103	RBFOX3 (RNA binding fox-1 homolog 3)	SID315465096	-1.4	inactive
104	RBFOX3 (RNA binding fox-1 homolog 3)	SID315465096	-1.08	inactive
105	RBFOX3 (RNA binding fox-1 homolog 3)	SID315465096	-0.99	inactive
106	RBFOX3 (RNA binding fox-1 homolog 3)	SID315465096	0.05	inactive
107	TMEM225 (transmembrane protein 225)	SID315463991	2.07	inactive
108	TMEM225 (transmembrane protein 225)	SID315463991	-0.51	inactive
109	TMEM225 (transmembrane protein 225)	SID315463991	-1.54	active
110	TMEM225 (transmembrane protein 225)	SID315463991	-0.76	inactive
111	SORD (sorbitol dehydrogenase)	SID315451576	0.19	inactive
112	SORD (sorbitol dehydrogenase)	SID315451576	-0.13	inactive
113	SORD (sorbitol dehydrogenase)	SID315451576	0.41	inactive
114	SORD (sorbitol dehydrogenase)	SID315451576	0.02	inactive
115	TUBA4A (tubulin alpha 4a)	SID315452008	-1.32	inactive
116	TUBA4A (tubulin alpha 4a)	SID315452008	-0.99	inactive
117	TUBA4A (tubulin alpha 4a)	SID315452008	0.11	inactive
118	TUBA4A (tubulin alpha 4a)	SID315452008	-0.88	inactive
119	PROKR1 (prokineticin receptor 1)	SID315454427	0.43	inactive
120	PROKR1 (prokineticin receptor 1)	SID315454427	0.55	inactive
121	PROKR1 (prokineticin receptor 1)	SID315454427	-0.19	inactive
122	PROKR1 (prokineticin receptor 1)	SID315454427	0.63	inactive
123	SIGLEC12 (sialic acid binding Ig like lectin 12)	SID315460749	1.04	inactive
124	SIGLEC12 (sialic acid binding Ig like lectin 12)	SID315460749	0.45	inactive
125	SIGLEC12 (sialic acid binding Ig like lectin 12)	SID315460749	0.59	inactive
126	SIGLEC12 (sialic acid binding Ig like lectin 12)	SID315460749	-0.52	inactive
127	RAD54B (RAD54 homolog B)	SID315455459	-1.13	inactive
128	RAD54B (RAD54 homolog B)	SID315455459	-0.22	inactive
129	RAD54B (RAD54 homolog B)	SID315455459	-0.3	inactive
130	RAD54B (RAD54 homolog B)	SID315455459	-0.43	inactive
131	TCOF1 (treacle ribosome biogenesis factor 1)	SID315451801	-1.49	inactive
132	TCOF1 (treacle ribosome biogenesis factor 1)	SID315451801	-1.48	inactive
133	TCOF1 (treacle ribosome biogenesis factor 1)	SID315451801	-1.23	inactive
134	TCOF1 (treacle ribosome biogenesis factor 1)	SID315451801	-1.5	inactive
135	SPMIP4 (sperm microtubule inner protein 4)	SID315462016	-0.43	inactive
136	SPMIP4 (sperm microtubule inner protein 4)	SID315462016	-0.42	inactive
137	SPMIP4 (sperm microtubule inner protein 4)	SID315462016	-0.77	inactive
138	SPMIP4 (sperm microtubule inner protein 4)	SID315462016	0	inactive
139	RHEX (regulator of hemoglobinization and erythroid cell expansion)	SID315464919	0	inactive
140	RHEX (regulator of hemoglobinization and erythroid cell expansion)	SID315464919	0.25	inactive
141	RHEX (regulator of hemoglobinization and erythroid cell expansion)	SID315464919	-0.61	inactive
142	RHEX (regulator of hemoglobinization and erythroid cell expansion)	SID315464919	-0.67	inactive
